These results are taken from article PMC5287475.

Protein sequences, listed by entry. Tags and fused reporters are not part of them.
UniProt P25440: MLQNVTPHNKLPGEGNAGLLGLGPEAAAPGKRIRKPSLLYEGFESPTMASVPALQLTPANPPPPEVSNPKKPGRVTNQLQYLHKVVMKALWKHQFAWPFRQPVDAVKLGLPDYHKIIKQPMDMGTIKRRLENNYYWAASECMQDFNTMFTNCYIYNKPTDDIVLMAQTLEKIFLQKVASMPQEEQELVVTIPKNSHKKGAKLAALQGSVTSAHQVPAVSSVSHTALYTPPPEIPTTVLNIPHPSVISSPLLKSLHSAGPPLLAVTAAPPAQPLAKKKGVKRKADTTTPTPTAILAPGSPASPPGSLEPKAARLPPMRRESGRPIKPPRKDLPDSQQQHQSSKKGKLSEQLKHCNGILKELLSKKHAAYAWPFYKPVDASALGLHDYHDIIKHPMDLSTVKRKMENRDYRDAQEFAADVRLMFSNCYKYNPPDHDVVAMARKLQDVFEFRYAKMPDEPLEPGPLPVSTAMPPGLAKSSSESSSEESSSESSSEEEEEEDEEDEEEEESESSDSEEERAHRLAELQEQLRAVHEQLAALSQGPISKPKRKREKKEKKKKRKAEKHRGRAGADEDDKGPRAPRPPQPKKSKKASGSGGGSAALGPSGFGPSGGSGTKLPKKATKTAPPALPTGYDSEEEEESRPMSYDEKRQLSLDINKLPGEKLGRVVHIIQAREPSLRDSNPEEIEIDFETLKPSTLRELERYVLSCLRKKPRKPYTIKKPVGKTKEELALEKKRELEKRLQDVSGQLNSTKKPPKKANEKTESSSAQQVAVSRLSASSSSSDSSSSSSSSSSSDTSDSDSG

The assay has as its target BRD2 (endogenous) (human (endogenous in BCBL1)) (UniProt P25440). Description: co-IP; endogenous proteins of BCBL1 cells treated with DMSO or JQ1 for 1 hr; IP with antibody to RAD21, BRD2, BRD4 or IgG; Western blot for RAD21, BRD4, BRD2, SMC1 or LANA. (A western blot detects proteins with antibodies after separation by electrophoresis.)

These are yes or no findings as the source states them, for the method shown. Binding seen in cells or lysates may run through a third protein.

B1: cohesin subunit RAD21 (endogenous) (protein, UniProt O60216 1-631)
chain: MFYAHFVLSKRGPLAKIWLAAHWDKKLTKAHVFECNLESSVESIISPKVKMALRTSGHLLLGVVRIYHRKAKYLLADCNEAFIKIKMAFRPGVVDLPEENREAAYNAITLPEEFHDFDQPLPDLDDIDVAQQFSLNQSRVEEITMREEVGNISILQENDFGDFGMDDREIMREGSAFEDDDMLVSTTTSNLLLESEQSTSNLNEKINHLEYEDQYKDDNFGEGNDGGILDDKLISNNDGGIFDDPPALSEAGVMLPEQPAHDDMDEDDNVSMGGPDSPDSVDPVEPMPTMTDQTTLVPNEEEAFALEPIDITVKETKAKRKRKLIVDSVKELDSKTIRAQLSDYSDIVTTLDLAPPTKKLMMWKETGGVEKLFSLPAQPLWNNRLLKLFTRCLTPLVPEDLRKRRKGGEADNLDEFLKEFENPEVPREDQQQQHQQRDVIDEPIIEEPSRLQESVMEASRTNIDESAMPPPPPQGVKRKAGQIDPEPVMPPQQVEQMEIPPVELPPEEPPNICQLIPELELLPEKEKEKEKEKEDDEEEEDEDASGGDQDQEERRWNKRTQQMLHGLQRALAKTGAESISLLELCRNTNRKQAAAKFYSFLVLKKQQAIELTQEEPYSDIIATPGPRFHII
B1: the binding result is listed as “no binding”.
